Data taken from publication PMC12241546, “PRELP functions via multiple interactions with intrinsically weak affinity relying on ECM anchoring and remodeling” (Scientific Reports, 2025).
These are yes or no findings as the source states them, for the method shown. Binding can be weak; no strength is given.

Key:
[1] = biological target: bovine collagen (KOKEN AteloCell I-AC) (bovine); assay: ELISA; wells coated with fibronectin (5 µg/mL), perlecan (1 µg/mL) or collagen (5 µg/mL) in PBS; a range of concentrations of full-length PRELP in 10 mM HEPES pH 7.5, 150 mM NaCl, 0.05% Tween-20, room temperature, 1 h; detected with anti-DDDDK-tag mAb HRP; both purified
[2] = biological target: human fibronectin (human); assay: as above

B1: Recombinant human full-length PRELP (proline/arginine-rich end leucine-rich repeat protein) (natural protein, UniProt P51888 21-382, looked up)
chain: QPTRRPRPGTGPGRRPRPRPRPTPSFPQPDEPAEPTDLPPPLPPGPPSIFPDCPRECYCPPDFPSALYCDSRNLRKVPVIPPRIHYLYLQNNFITELPVESFQNATGLRWINLDNNRIRKIDQRVLEKLPGLVFLYMEKNQLEEVPSALPRNLEQLRLSQNHISRIPPGVFSKLENLLLLDLQHNRLSDGVFKPDTFHGLKNLMQLNLAHNILRKMPPRVPTAIHQLYLDSNKIETIPNGYFKSFPNLAFIRLNYNKLTDRGLPKNSFNISNLLVLHLSHNRISSVPAINNRLEHLYLNNNSIEKINGTQICPNDLVAFHDFSSDLENVPHLRYLRLDGNYLKPPIPLDLMMCFRLLQSVVI
notes: human PRELP, amino acid residues 21-382 (Uniprot numbering); source: Mimic Sf9 cells, purified from the supernatant (DDDDK-tagged Protein Purification Gel, Benzonase, SEC); not shown: FLAG, C-terminal, kept
- binding [1]: binds
- binding [2]: binds
